The results in this text go back to paper PMC11414387.

Chains of the proteins cited; added tags and fusions are not shown.
UniProt P35222: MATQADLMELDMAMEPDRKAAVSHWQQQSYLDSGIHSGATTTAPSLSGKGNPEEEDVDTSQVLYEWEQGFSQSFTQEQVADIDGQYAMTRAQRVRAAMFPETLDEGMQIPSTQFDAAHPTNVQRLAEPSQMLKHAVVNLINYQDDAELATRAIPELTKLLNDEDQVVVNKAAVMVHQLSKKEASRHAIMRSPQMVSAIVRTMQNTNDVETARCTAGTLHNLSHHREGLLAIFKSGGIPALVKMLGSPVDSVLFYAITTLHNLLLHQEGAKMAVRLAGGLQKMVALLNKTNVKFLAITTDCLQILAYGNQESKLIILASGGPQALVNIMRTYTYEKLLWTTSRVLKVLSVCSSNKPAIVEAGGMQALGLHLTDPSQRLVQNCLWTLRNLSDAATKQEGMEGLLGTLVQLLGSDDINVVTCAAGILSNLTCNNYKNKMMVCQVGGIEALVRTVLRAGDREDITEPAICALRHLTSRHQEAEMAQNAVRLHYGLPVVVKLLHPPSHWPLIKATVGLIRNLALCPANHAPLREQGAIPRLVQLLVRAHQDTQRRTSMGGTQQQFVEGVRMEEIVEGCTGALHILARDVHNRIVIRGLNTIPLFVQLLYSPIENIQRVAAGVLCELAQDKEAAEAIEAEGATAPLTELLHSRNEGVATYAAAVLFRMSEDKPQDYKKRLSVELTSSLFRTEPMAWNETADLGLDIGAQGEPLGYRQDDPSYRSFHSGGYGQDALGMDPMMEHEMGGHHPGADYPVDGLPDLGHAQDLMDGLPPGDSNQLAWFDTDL
UniProt Q15208: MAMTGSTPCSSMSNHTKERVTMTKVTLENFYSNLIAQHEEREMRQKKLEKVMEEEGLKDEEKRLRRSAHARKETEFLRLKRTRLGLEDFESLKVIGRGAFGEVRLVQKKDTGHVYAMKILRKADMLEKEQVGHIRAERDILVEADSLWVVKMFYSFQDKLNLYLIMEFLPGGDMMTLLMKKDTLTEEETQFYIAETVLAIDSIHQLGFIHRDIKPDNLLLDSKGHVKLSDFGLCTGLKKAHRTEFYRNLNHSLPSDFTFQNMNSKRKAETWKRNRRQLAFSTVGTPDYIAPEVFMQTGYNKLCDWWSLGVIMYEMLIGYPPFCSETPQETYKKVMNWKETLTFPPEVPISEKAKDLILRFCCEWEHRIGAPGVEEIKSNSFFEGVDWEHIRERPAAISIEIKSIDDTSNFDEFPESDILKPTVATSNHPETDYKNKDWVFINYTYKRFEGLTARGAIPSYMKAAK

No constants are given. Whether binding was seen depends on the method and setting. In cells and extracts the contact can be indirect. These calls come from enrichment with a bait or labelling near it, and not all partners need be listed.

The target of experiment [1] is β-catenin (bait of the mass spectrometry analysis) (UniProt P35222). In words: affinity purification with mass spectrometry; MS analysis of the molecules bound to NDR1 and β-catenin; protein gel strips digested, LC-MS/MS (timsTOF pro), Mascot search.
Experiment [2] has as its target NDR1 (bait of the mass spectrometry analysis) (UniProt Q15208). The experiment is described as above.

B1: E3 ubiquitin ligase FBXO11 (found by mass spectrometry) (enzyme, UniProt Q86XK2 1-927)
chain: MNSVRAANRRPRRVSRPRPVQQQQQQPPQQPPPQPPQQQPPQQQPPPPPQQQQQQQPPPPPPPPPPLPQERNNVGERDDDVPADMVAEESGPGAQNSPYQLRRKTLLPKRTACPTKNSMEGASTSTTENFGHRAKRARVSGKSQDLSAAPAEQYLQEKLPDEVVLKIFSYLLEQDLCRAACVCKRFSELANDPILWKRLYMEVFEYTRPMMHPEPGKFYQINPEEYEHPNPWKESFQQLYKGAHVKPGFAEHFYSNPARYKGRENMLYYDTIEDALGGVQEAHFDGLIFVHSGIYTDEWIYIESPITMIGAAPGKVADKVIIENTRDSTFVFMEGSEDAYVGYMTIRFNPDDKSAQHHNAHHCLEITVNCSPIIDHCIIRSTCTVGSAVCVSGQGACPTIKHCNISDCENVGLYITDHAQGIYEDNEISNNALAGIWVKNHGNPIIRRNHIHHGRDVGVFTFDHGMGYFESCNIHRNRIAGFEVKAYANPTVVRCEIHHGQTGGIYVHEKGRGQFIENKIYANNFAGVWITSNSDPTIRGNSIFNGNQGGVYIFGDGRGLIEGNDIYGNALAGIQIRTNSCPIVRHNKIHDGQHGGIYVHEKGQGVIEENEVYSNTLAGVWVTTGSTPVLRRNRIHSGKQVGVYFYDNGHGVLEDNDIYNHMYSGVQIRTGSNPKIRRNKIWGGQNGGILVYNSGLGCIEDNEIFDNAMAGVWIKTDSNPTLRRNKIHDGRDGGICIFNGGRGLLEENDIFRNAQAGVLISTNSHPILRKNRIFDGFAAGIEITNHATATLEGNQIFNNRFGGLFLASGVNVTMKDNKIMNNQDAIEKAVSRGQCLYKISSYTSYPMHDFYRCHTCNTTDRNAICVNCIKKCHQGHDVEFIRHDRFFCDCGAGTLSNPCTLAGEPTHDTDTLYDSAPPIESNTLQHN
As for B1, the binding entry in experiment [1] and in experiment [2] was “binds” throughout.
